Data from publication PMC9322903.

Target: T1, Phosphoinositide-3-kinase (PI3K)-interacting protein 1 (PIK3IP1) (rat (endogenous in H9c2)) (UniProt Q56A20)
T1 sequence: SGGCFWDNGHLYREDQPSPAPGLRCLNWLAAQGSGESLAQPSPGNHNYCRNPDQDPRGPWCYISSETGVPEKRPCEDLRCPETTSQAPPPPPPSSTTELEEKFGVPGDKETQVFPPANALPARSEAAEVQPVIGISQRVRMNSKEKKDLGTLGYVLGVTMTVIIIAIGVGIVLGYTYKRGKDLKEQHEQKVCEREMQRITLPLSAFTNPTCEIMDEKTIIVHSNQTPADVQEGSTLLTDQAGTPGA
Assay: co-IP; H9c2 cells lysed in NP-40 buffer with protease inhibitors; Dynabeads protein G with 10 μL of antibodies or rabbit IgG (mock IP); eluted proteins detected by Western blotting

binding: binds
Substance: p110γ (catalytic subunit of PI3Kγ) (rat (endogenous in H9c2))

Results are given in words; binding and its absence hold for the method and conditions named. In cells and extracts the contact can be indirect. A result given as binding can be weak or reduced; the word gives no strength.
